Measurements published in PubChem BioAssay AID1688 (National Center for Advancing Translational Sciences (NCATS), 2009).
Out of some 220,000 compounds screened, about 2,400 (1.1%) were called active. The inconclusive results got no clear call from the source; some entries with a clear call stand among them for comparison. The call rests on the fitted dose curve; in most records, active means well fitted inhibition curve with a large enough effect; inconclusive means small, poorly fitted or top-dose-only effect, or effect the other way; inactive means no such curve, though single readings can be large or run the other way. A potency beside an inconclusive call is a rough fit, not a confirmed value.

assay: qHTS Multiplex Assay to Identify Dual Action Probes in a Cell Model of Huntington: Aggregate Formation (GFP); conditions: PC12 HttQ103-GFP aggregates, Acumen cytometry, 40 h; activity change, negative = inhibition: at 46.1 µM (top of the series) unless noted; further: nearly all actives have a fitted effect of over 60% in size
Procedure, shortened: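 PC12 cells with ecdysone-inducible HTT exon1 Q103-GFP, induced by 100 nM tebufenozide, given compounds in a concentration series. GFP aggregates (1–25 um, 6 SD above background) counted in lysates by laser-scanning cytometry, 488 nm excitation.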
On the % scale 0 is the no-effect control and ±100 the full control effect; potency means the concentration at half of the fitted maximal effect.

| SMILES | Potency | activity change, negative = inhibition |
| --- | --- | --- |
| CN(C)S(=O)(=O)c1ccc(NC(=O)N2CCN(c3cccc(C(F)(F)F)c3)CC2)cc1 | inconclusive: 8.91 µM [inhibitor, partial curve] | – |
| COCCCn1[nH]c2c3c(ccc2c1=O)C(=O)c1ccccc1C3=O | inconclusive: 11.2 µM [inhibitor, single point] | – |
| O=C(CCCN1C(=O)/C(=C/c2ccccc2)SC1=S)Nc1ccccc1O | inconclusive: 35.5 µM [inhibitor, single point] | – |
| O=C(Oc1c(CN2CCOCC2)cc(Cl)c2cccnc12)c1ccccc1Br | inconclusive: 5.62 µM [inhibitor, single point] | – |
| Cc1ccc(-n2nc(C)c3c2OC(N)=C(C#N)C3c2ccc(C)o2)cc1 (configuration not stated) | – | inactive: 17.2% |
| CC(C)CN(CC(C)C)C1=N/C(=C\c2ccco2)C(=O)N1c1ccccc1 | – | inactive: 11% |
| Nc1nn(-c2ccccc2)c(N)c1N=Nc1ccc2c(c1)OCO2 | – | inactive: 7.2% |
| CCCN(CCC)CC(O)CN(c1ccccc1)S(=O)(=O)c1ccc(C)cc1 (configuration not stated) | – | inactive: -9.82% [at 9.22 µM] |
| O=C(NN1C(=O)C2C3c4ccccc4C(c4ccccc43)[C@@H]2C1=O)c1ccccc1 (some centres not stated) | inconclusive: 1.26 µM [inhibitor, single point] | – |
| Cc1ccc(Cl)cc1NC(=S)N(CCN(C)C)C(C)c1ccccn1 (configuration not stated) | – | inactive: -17.4% |
| O=C(CSc1ncnc2scc(-c3ccccc3)c12)N1CCN(Cc2ccc3c(c2)OCO3)CC1 | inconclusive: 14.1 µM [inhibitor, single point] | – |
| CCOC(=O)C1=CN(Cc2ccc(OC)cc2)C=C(C(=O)OCC)C1c1cccs1 | inconclusive: 7.08 µM [activator, partial curve] | – |
| CC(=O)N(C(C)=O)c1ncc2c([nH]c3ccccc32)c1C#N | active: 3.16 µM | – |
| Clc1ncnc2c1oc1ccccc12 | – | inactive: -4.1% |
| CSc1ncccc1C(=O)Nc1nc2ccc(Oc3ccccc3)cc2s1 | inconclusive: 20 µM [inhibitor, single point] | – |
| O=C(COC(=O)Cn1cnc2ccccc21)Nc1ccc2c(c1)OCCO2 | – | inactive: 4.64% |
| CC1CCCN(c2nc3c(c(=O)n(C)c(=O)n3C)n2Cc2ccccc2)C1 (configuration not stated) | – | inactive: -0.699% |
| CNC(=O)/C(C#N)=c1\s/c(=C/C(=O)OC)c(=O)n1-c1ccccc1 | – | inactive: -8.44% |
| S=C(NCc1ccco1)Nc1ccc(Cl)cc1 | inconclusive: 17.8 µM [inhibitor, single point] | – |
| CCN(CC)c1ccc(/C=N/NC(=O)c2cccc(S(=O)(=O)N3CCOCC3)c2)c(O)c1 | inconclusive: 1.78 µM [inhibitor, full curve] | – |
| O=C(c1ccco1)N(Cc1ccccc1)c1cccc([N+](=O)[O-])c1 | inconclusive: 35.5 µM [inhibitor, single point] | – |
| O=C(NCCN1CCOCC1)NC1(C(F)(F)F)Oc2ccc(Cl)cc2O1 (configuration not stated) | inconclusive: 2.24 µM [activator, full curve] | – |
| O=c1ccc2cc3c([nH]c4ccc(Br)cc43)oc-2c1O | – | inactive: -0.496% |
| CCc1nc(C)cn1S(=O)(=O)c1ccc(Cl)c(Cl)c1Cl | inconclusive: 10 µM [inhibitor, partial curve] | – |

Looked up above:
Entry for CCOC(=O)C1=CN(Cc2ccc(OC)cc2)C=C(C(=O)OCC)C1c1cccs1 under Potency: inconclusive: 7.08 µM [activator, partial curve]
Entry for CCCN(CCC)CC(O)CN(c1ccccc1)S(=O)(=O)c1ccc(C)cc1 (configuration not stated) under activity change, negative = inhibition: inactive: -9.82% [at 9.22 µM]

More results follow.

| SMILES | Potency | activity change, negative = inhibition |
| --- | --- | --- |
| COc1ccc(OC)c(C2/C(=C(/O)c3cnn(-c4ccccc4)c3C)C(=O)C(=O)N2CCN(C)C)c1 (configuration not stated) | active: 10 µM | – |
| FC(F)Sc1ccc(NC(=S)NC(c2ccccc2)c2ccccc2)cc1 | active: 12.6 µM | – |
| COC(=O)c1ccccc1S(=O)(=O)N(Cc1cc2ccc(OC)cc2[nH]c1=O)CC1CCCO1 (configuration not stated) | active: 3.55 µM | – |
| COc1ccc(C2NC(=S)NC(C)=C2C(=O)c2ccccc2)cc1OC (configuration not stated) | – | inactive: 3.42% |
| COc1ccccc1CNC(=O)c1c(N)n(CCCN2CCOCC2)c2nc3ccccc3nc12 | – | inactive: 7.51% |
| Cc1cc(=O)[nH]c(SCC(=O)C23CC4CC(CC(C4)C2)C3)c1C#N | inconclusive: 22.4 µM [inhibitor, single point] | – |
| COc1ccc(-n2cnc3c(sc4nccc(N(C)C)c43)c2=O)cc1 | inconclusive: 1.41 µM [inhibitor, full curve, poor fit] | – |
| O=C(NC(=S)Nc1nc2c(s1)CSc1ccccc1-2)c1ccccc1 | inconclusive: 35.5 µM [inhibitor, single point] | – |
| CCn1c(C)nc2cc(S(=O)(=O)N3CCCCC3)ccc21 | inconclusive: 10 µM [inhibitor, single point] | – |
| O=C(NCc1ccc2c(c1)OCO2)c1cccc(S(=O)(=O)N2CCCCC2)c1 | inconclusive: 15.8 µM [inhibitor, single point] | – |
| Cc1sc2nc(CN3CCCC3)nc(Cl)c2c1C | active: 12.6 µM | – |
| Cc1c(O)c(=O)c2ccccc2n1C | inconclusive: 35.5 µM [inhibitor, single point] | – |
| Cc1ccc(C2C3CSCC=C3C(C#N)=C(N)C2(C#N)C#N)cc1 (configuration not stated) | inconclusive: 35.5 µM [activator, single point] | – |
| C=CCC(COCc1ccccc1)NS(=O)(=O)c1ccccc1Br (configuration not stated) | – | inactive: 14.2% [at 9.22 µM] |
| COc1ccc(/C(O)=C/Sc2nnc(Cc3ccccc3)o2)cc1 | inconclusive: 35.5 µM [inhibitor, single point] | – |
| CCOc1ccc(CCNC(=O)C(CCC(N)=O)NC(=O)OCc2ccccc2)cc1OCC (configuration not stated) | – | inactive: 28.7% |
| CCc1ccc(N(CC)c2ncnc3nc[nH]c23)cc1 | active: 10 µM | – |
| Cc1cc2ncn(-c3ncnc4sc5c(c34)CCCC5)c2cc1C | inconclusive: 35.5 µM [inhibitor, single point] | – |
| COc1ccccc1CN1CCN(Cc2nc(Cc3ccccc3)no2)CC1 | – | inactive: 3.61% [at 9.22 µM] |
| S=c1[nH]nc(-c2ccco2)n1/N=C/c1cccs1 | – | inactive: -20% |
| C[C@H](NC(=O)c1ccccc1Cl)C(=O)OCCOc1cccc(Cl)c1 | inconclusive: 20 µM [activator, partial curve] | – |
| CC1CN(S(=O)(=O)c2ccc(C(=O)Nc3nnc(-c4ccco4)o3)cc2)CC(C)O1 (configuration not stated) | inconclusive: 35.5 µM [inhibitor, single point] | – |
| CCCC(C)c1nnc(NC(=O)c2cc(C(=O)OC)cc([N+](=O)[O-])c2)s1 (configuration not stated) | – | inactive: -9.62% |
